This note sets out measurements from the supplement of paper PMC3682954.

“And” between values parts separate entries of the source, which are not always exact repeats. Identical values can stand only once. Counter-ions that a name gives are not always drawn. ± gives the standard deviation of the averaged measurements. Some of the results follow. Repeats are few or missing, and single values can be far off.

The test system of the assay is RAW 264.7. Put plainly: cell viability (MTT) relative to vehicle control; higher = more viable cells. The settings on record: stimulus: HMGB1 5 ug/ml, 18 h.
Setting [1] is: compound concentration: 1 ug/ml.

Broadly, the cell viability is a read-out of living cells in per cent, often relative to untreated cells. Regarding `COc1cc2ccc(=O)oc2cc1OC1OC(COC2OC(C)C(O)C(O)C2O)C(O)C(O)C1OC1OC(C)C(O)C(O)C1O` (configuration not stated) [Haploperozide], the cell viability under setting [1] was found to be 108%.
Turning to `N=C(N)SCCc1c[nH]cn1` [Imetit dihydrobromide], the cell viability (compound concentration: 3 uM) amounted to 102%.
Same read-out and setting: the figure for `CC1(C)O[C@@H]2C[C@H]3[C@@H]4CCC5=CC(=O)C=C[C@]5(C)[C@@]4(F)[C@@H](O)C[C@]3(C)[C@]2(C(=O)CO)O1` is 113%.
As for `O=C(O)CCCc1ccccc1` [Sodium Phenylbutyrate], where the note is “compound concentration: 3 uM”, the cell viability worked out at 97.4%.
In the case of `CC(C)NCC(O)COc1ccc(CC(N)=O)cc1` (racemic) [(±)-Atenolol], the cell viability (compound concentration: 3 uM) worked out at 111%.
`Cc1cnc(NC(=O)C2=C(O)c3ccccc3S(=O)(=O)N2C)s1`: for the setting “compound concentration: 3 uM”, the cell viability amounted to 104%.
As for `Cc1cnc(NC(=O)C2=C(O)c3ccccc3S(=O)(=O)N2C)s1` [Meloxicam], for the setting “compound concentration: 3 uM”, the cell viability came out at 97.8 ± 9.9%.
Same read-out and setting: the figure for `Cc1cnc(NC(=O)C2=C(O)c3ccccc3S(=O)(=O)N2C)s1` [Meloxicam sodium] is 105%.
The same measure, in the same setting: as for `CCCCCCCC/C=C/CCCCCCCCOP(=O)([O-])OCC[N+](C)(C)C`, the figure is 143%.
In the case of `OC[C@H]1O[C@@H](n2cnc3c(NCc4ccco4)ncnc32)[C@H](O)[C@@H]1O` [Kinetin-9-riboside], the cell viability under setting [1] was determined as 94.8%.
Regarding `CC1CC(OC(=O)C(O)c2ccccc2)CC(C)(C)N1C` (configuration not stated), where the note is “compound concentration: 3 uM”, the cell viability came to 110%.
Turning to `CC1CC(OC(=O)C(O)c2ccccc2)CC(C)(C)N1C` (configuration not stated) [Eucatropine hydrochloride], the cell viability (compound concentration: 3 uM) amounted to 137%.
On to `O=C(N[C@@H](Cc1c[nH]c2ccccc12)C(=O)O)OCC1c2ccccc2-c2ccccc21` [Nalpha-FMOC-L-Tryptophan], for which the cell viability under setting [1] came out at 117%.
As to `C1CCN2C[C@@H]3C[C@@H](CN4CCCC[C@@H]34)[C@H]2C1`, the cell viability (compound concentration: 3 uM) was found to be 113%.
Still for that read-out and setting: as for `CCN1CCN(c2cc3c(cc2F)c(=O)c(C(=O)O)cn3C2CC2)CC1`, the figure is 99.4 ± 11%; as for `CCN1CCN(c2cc3c(cc2F)c(=O)c(C(=O)O)cn3C2CC2)CC1` [Enrofloxacin], 102%; as for `CCN1CCC[C@H]1CNC(=O)c1c(OC)ccc(Br)c1OC` [Remoxipride Hydrochloride], 69.5%.
As to `CCN1CCC[C@H]1CNC(=O)c1c(OC)ccc(Br)c1OC` [Remoxipride], under “compound concentration: 3 uM”, the cell viability came to 102%.
Take `COc1cc(NS(C)(=O)=O)ccc1Nc1c2ccccc2nc2ccccc12` [Amsacrine hydrochloride]: the cell viability (compound concentration: 3 uM) is 19.4%.
`COc1cc(NS(C)(=O)=O)ccc1Nc1c2ccccc2nc2ccccc12`: the cell viability (compound concentration: 3 uM) turned out to be 83.6 ± 4.1%.
As for `CN(C)c1ccc(/C=C2/C(=O)Nc3ccccc32)cc1`, the cell viability (compound concentration: 3 uM) amounted to 119%.
On to `Cc1nnc(NS(=O)(=O)c2ccc(N)cc2)s1` [Sulfamethizole], for which the cell viability (compound concentration: 3 uM) is 132%.
`Cc1nnc(NS(=O)(=O)c2ccc(N)cc2)s1`: for the setting “compound concentration: 3 uM”, the cell viability is 102%.
With `CC(=O)OCC1OC(Oc2cc(OC(C)=O)c3c(=O)c(-c4ccc(OC(C)=O)c(OC(C)=O)c4)coc3c2)C(OC(C)=O)C(OC(C)=O)C1OC(C)=O` (configuration not stated) [Orobole 7-O-Glucoside, Acetate], the cell viability under setting [1] was 107%.
Turning to `COc1cc(O)c2c(=O)cc(-c3ccccc3)oc2c1`, under setting [1], the cell viability was determined as 93.8%.
Consider `CC(C)C1=CC2=CC[C@@H]3[C@](C)(CCC[C@@]3(C)C(=O)O)[C@H]2CC1` [Abietic acid], for which the cell viability under setting [1] was determined as 95.3%.
For the compound `C[C@H]1C[C@H]2[C@@H]3CCC4=CC(=O)C=C[C@]4(C)[C@@]3(F)[C@@H](O)C[C@]2(C)[C@@]1(O)C(=O)CO`, under “compound concentration: 3 uM”, the cell viability came to 114%.
Same read-out and setting: the figure for `C[C@H]1C[C@H]2[C@@H]3CCC4=CC(=O)C=C[C@]4(C)[C@@]3(F)[C@@H](O)C[C@]2(C)[C@@]1(O)C(=O)CO` [Betamethasone] is 99.1 ± 8.4%.
Consider `CCCn1c(=O)c2c(ncn2C)n(CCC)c1=O` [1,3-Dipropyl-7-methylxanthine], for which, under “compound concentration: 3 uM”, the cell viability stood at 98.3%.
Turning to `Oc1ccc(OCc2ccccc2)cc1` [Monobenzone], where the note is “compound concentration: 3 uM”, the cell viability worked out at 101%.
Take `CC1=Nc2ccc(Cl)cc2S(=O)(=O)N1` [Diazoxide]: the cell viability (compound concentration: 3 uM) turned out to be 103 ± 7.1%.
With `CC1=Nc2ccc(Cl)cc2S(=O)(=O)N1`, the cell viability (compound concentration: 3 uM) amounted to 96 ± 3.5%.
On to `CO[C@@]12[C@H](COC(N)=O)C3=C(C(=O)C(C)=C(N)C3=O)N1C[C@@H]1N[C@@H]12`, for which the cell viability (compound concentration: 3 uM) came to 99.1 ± 11%.
Consider `CO[C@@]12[C@H](COC(N)=O)C3=C(C(=O)C(C)=C(N)C3=O)N1C[C@@H]1N[C@@H]12` [Mitomycin C], for which the cell viability (compound concentration: 3 uM) is 97.3%.
With `CC(C(=O)O)c1ccc(N2Cc3ccccc3C2=O)cc1` (configuration not stated), the cell viability (compound concentration: 3 uM) stood at 106%.
Consider `CC(C(=O)O)c1ccc(N2Cc3ccccc3C2=O)cc1` (configuration not stated) [Indoprofen], for which the cell viability (compound concentration: 3 uM) was 90.6%.
The same measure, in the same setting: the figure for `CN(C)CCOc1ccc(/C(=C(/CCCl)c2ccccc2)c2ccccc2)cc1` is 112% and 103%; for `CN(C)CCOc1ccc(/C(=C(/CCCl)c2ccccc2)c2ccccc2)cc1` [Toremifene] it is 120 ± 11%.
Consider `CCN1CCN(C(=O)N[C@@H](C(=O)N[C@@H]2C(=O)N3C(C(=O)O)=C(CSc4nnnn4C)CS[C@H]23)c2ccc(O)cc2)C(=O)C1=O` [Cefoperazone dihydrate], for which the cell viability (compound concentration: 3 uM) was found to be 104%.
With `CCN1CCN(C(=O)N[C@@H](C(=O)N[C@@H]2C(=O)N3C(C(=O)O)=C(CSc4nnnn4C)CS[C@H]23)c2ccc(O)cc2)C(=O)C1=O`, the cell viability (compound concentration: 3 uM) turned out to be 102%.
For `CCN1CCN(C(=O)N[C@@H](C(=O)N[C@@H]2C(=O)N3C(C(=O)O)=C(CSc4nnnn4C)CS[C@H]23)c2ccc(O)cc2)C(=O)C1=O` [Cefoperazone acid], the cell viability (compound concentration: 3 uM) is 91.8%.
On the same count and under the same terms, as for `O=C(NCCO[N+](=O)[O-])c1cccnc1` [Nicorandil], the figure is 109 ± 18%; as for `O=C(NCCO[N+](=O)[O-])c1cccnc1`, 97%.
Still for that read-out and setting: the figure for `Cc1ccc(Cl)c(Nc2ccccc2C(=O)O)c1Cl` [Meclofenamic acid sodium] is 116%; for `Cc1ccc(Cl)c(Nc2ccccc2C(=O)O)c1Cl` it is 115%.
As to `Cc1ccc(Cl)c(Nc2ccccc2C(=O)O)c1Cl` [Meclofenamic acid sodium salt monohydrate], where the note is “compound concentration: 3 uM”, the cell viability turned out to be 88.1%.
Same read-out and setting: the figure for `C=C1/C(=C\C=C2/CCC[C@]3(C)[C@@H]([C@H](C)/C=C/[C@@H](O)C4CC4)CC[C@@H]23)C[C@@H](O)C[C@@H]1O` [Calcipotriene] is 115 ± 3.1%.
For `C=C1/C(=C\C=C2/CCC[C@]3(C)[C@@H]([C@H](C)/C=C/[C@@H](O)C4CC4)CC[C@@H]23)C[C@@H](O)C[C@@H]1O`, under “compound concentration: 3 uM”, the cell viability is 103%.
For `COC(=O)Nc1nc2ccc(SC(C)C)cc2[nH]1` [Methiazole], the cell viability (compound concentration: 3 uM) was 77.4%.
Same read-out and setting: the figure for `COC(=O)C1=C(C)NC(C)=C(C(=O)OCCCN2CCC(c3ccccc3)(c3ccccc3)CC2)[C@H]1c1cccc([N+](=O)[O-])c1` [Niguldipine] is 104%; for `CCCCNc1ccc(C(=O)OCCOCCOCCOCCOCCOCCOCCOCCOCCOC)cc1` [Benzonatate] it is 107%.
Take `COCCOC(=O)C1=C(C)NC(C)=C(C(=O)OC/C=C/c2ccccc2)C1c1cccc([N+](=O)[O-])c1` (configuration not stated) [Cilnidipine]: the cell viability (compound concentration: 3 uM) was 107 ± 7.6%.
Turning to `Cc1cc(/C=C/c2ccc3cc(N(C)C)ccc3[n+]2C)c(C)n1-c1ccccc1` [Pyrvinium pamoate], the cell viability (compound concentration: 3 uM) worked out at 2.25%.
`Cc1cc(/C=C/c2ccc3cc(N(C)C)ccc3[n+]2C)c(C)n1-c1ccccc1`: the cell viability (compound concentration: 3 uM) is 37.4%.
For the compound `CCn1nc(C(=O)O)c(=O)c2cc3c(cc21)OCO3` [Cinoxacin], the cell viability under setting [1] was 105% and the cell viability (compound concentration: 3 uM) is 113 ± 10%.
On to `CCn1nc(C(=O)O)c(=O)c2cc3c(cc21)OCO3`, for which the cell viability (compound concentration: 3 uM) was determined as 105%.
In the case of `O=c1c(-c2ccc(O)cc2)coc2c([C@@H]3O[C@H](CO)[C@@H](O)[C@H](O)[C@H]3O)c(O)ccc12` [Puerarin], under setting [1], the cell viability stood at 108%.
As to `C[C@H]1CC2C3CCC4=CC(=O)C=C[C@]4(C)[C@@]3(F)[C@@H](O)C[C@]2(C)[C@@]1(O)C(=O)COP(=O)(O)O` (some centres not stated), the cell viability (compound concentration: 3 uM) is 122%.
Same read-out and setting: as for `CCCc1nc(C)c2c(=O)nc(-c3cc(S(=O)(=O)N4CCN(CC)CC4)ccc3OCC)[nH]n12` [Vardenafil], the figure is 102 ± 5.7%; as for `CCCc1nc(C)c2c(=O)nc(-c3cc(S(=O)(=O)N4CCN(CC)CC4)ccc3OCC)[nH]n12`, 98.8%.
In the case of `COC(=O)CC[C@@H](C)[C@H]1CC[C@H]2[C@@H]3CC[C@@H]4C[C@H](O)CC[C@]4(C)[C@H]3C[C@H](O)[C@]12C` [Deoxycholic acid methyl ester], the cell viability under setting [1] is 96.5%.
In the case of `O=C(O)/C=C/c1ccc(Cn2ccnc2)cc1` [Ozagrel hydrochloride], the cell viability (compound concentration: 3 uM) is 99.3%.
In the case of `O=C(O)/C=C/c1ccc(Cn2ccnc2)cc1`, the cell viability (compound concentration: 3 uM) was 97.4% and 101%.
Take `O=C(O)/C=C/c1ccc(Cn2ccnc2)cc1` [Ozagrel]: the cell viability (compound concentration: 3 uM) is 101%.
Regarding `CN1CCN(c2nc3cc(C(F)(F)F)ccc3n3cccc23)CC1`, the cell viability (compound concentration: 3 uM) was 107% and 100%.
On the same count and under the same terms, the figure for `CNC(C)C1CCC(N)C(OC2C(N)CC(N)C(OC3OCC(C)(O)C(NC)C3O)C2O)O1` (configuration not stated) [Gentamycin] is 105%.
Turning to `O=c1cc(-c2cccc(O)c2)oc2cc(O)ccc12`, the cell viability under setting [1] is 100%.
In the case of `CCn1ccnc1CC1COc2ccccc2O1` (configuration not stated) [Imiloxan hydrochloride], the cell viability (compound concentration: 3 uM) is 95.1%.
Regarding `O=c1cc(-c2ccccc2O)oc2c1ccc1ccccc12`, under setting [1], the cell viability was determined as 91.5%.
As for `Cc1cc(C)c(/C=C2\C(=O)Nc3ccccc32)[nH]1`, the cell viability (compound concentration: 3 uM) came out at 114%.
Regarding `CC[C@H]1OC(=O)[C@H](C)[C@@H](O[C@H]2C[C@@](C)(OC)[C@@H](O)[C@H](C)O2)[C@H](C)[C@@H](O[C@@H]2O[C@H](C)C[C@H](N(C)C)[C@H]2O)[C@](C)(O)C[C@@H](C)[C@@H]2N[C@@H](COCCOC)O[C@H]([C@H]2C)[C@]1(C)O` [Dirithromycin], the cell viability (compound concentration: 3 uM) came to 82.5%.
For `CC[C@H]1OC(=O)[C@H](C)[C@@H](O[C@H]2C[C@@](C)(OC)[C@@H](O)[C@H](C)O2)[C@H](C)[C@@H](O[C@@H]2O[C@H](C)C[C@H](N(C)C)[C@H]2O)[C@](C)(O)C[C@@H](C)[C@@H]2N[C@@H](COCCOC)O[C@H]([C@H]2C)[C@]1(C)O`, for the setting “compound concentration: 3 uM”, the cell viability was 107%.
Take `O=C1CC2(CCCC2)CC(=O)N1CCCCN1CCN(c2ncccn2)CC1`: for the setting “compound concentration: 3 uM”, the cell viability came out at 95.5%.
Still for that read-out and setting: the figure for `O=C1CC2(CCCC2)CC(=O)N1CCCCN1CCN(c2ncccn2)CC1` [Buspirone] is 95.9%.
For the compound `O=C1CC2(CCCC2)CC(=O)N1CCCCN1CCN(c2ncccn2)CC1` [Buspirone hydrochloride], for the setting “compound concentration: 3 uM”, the cell viability is 94.6 ± 1.9%.
With `CC(C)CC(=O)N[C@H](C(=O)N[C@H](C(=O)N[C@@H](CC(C)C)[C@@H](O)CC(=O)N[C@@H](C)C(=O)N[C@@H](CC(C)C)[C@@H](O)CC(=O)O)C(C)C)C(C)C` [Pepstatin A], the cell viability (compound concentration: 3 uM) was 112%.
